Results as given in article PMC3138748, “A Small Peptide Modeled after the NRAGE Repeat Domain Inhibits XIAP-TAB1-TAK1 Signaling for NF-κB Activation and Apoptosis in P19 Cells” (PLoS ONE, 2011).
No constants are given. Whether binding was seen depends on the method and setting. In cells and extracts the contact can be indirect. Some binding calls cover weakened binding; strength is not graded here. For part of these data: Tags and fused reporters may be left off the sequences shown.

By UniProt entry, the sequences of proteins in these tests, tags left out.
UniProt Q60989: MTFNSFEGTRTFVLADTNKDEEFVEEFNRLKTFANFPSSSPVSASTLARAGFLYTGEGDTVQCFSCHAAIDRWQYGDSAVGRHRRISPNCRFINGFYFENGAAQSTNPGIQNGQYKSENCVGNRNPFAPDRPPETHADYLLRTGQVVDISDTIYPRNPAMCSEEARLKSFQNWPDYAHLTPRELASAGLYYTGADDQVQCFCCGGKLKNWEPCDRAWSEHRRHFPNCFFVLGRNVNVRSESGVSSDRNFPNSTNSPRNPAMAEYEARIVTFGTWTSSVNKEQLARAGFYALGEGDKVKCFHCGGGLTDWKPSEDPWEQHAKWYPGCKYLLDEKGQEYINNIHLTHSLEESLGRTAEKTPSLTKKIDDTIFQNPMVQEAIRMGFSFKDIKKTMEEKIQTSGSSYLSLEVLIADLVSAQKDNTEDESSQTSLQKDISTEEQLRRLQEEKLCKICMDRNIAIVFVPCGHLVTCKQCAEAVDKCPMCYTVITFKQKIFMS

T1: endogenous NRAGE (neurotrophin receptor-mediated MAGE homolog) of P19 cells (mouse (endogenous in P19)) (UniProt Q9QYH6)
T1 sequence: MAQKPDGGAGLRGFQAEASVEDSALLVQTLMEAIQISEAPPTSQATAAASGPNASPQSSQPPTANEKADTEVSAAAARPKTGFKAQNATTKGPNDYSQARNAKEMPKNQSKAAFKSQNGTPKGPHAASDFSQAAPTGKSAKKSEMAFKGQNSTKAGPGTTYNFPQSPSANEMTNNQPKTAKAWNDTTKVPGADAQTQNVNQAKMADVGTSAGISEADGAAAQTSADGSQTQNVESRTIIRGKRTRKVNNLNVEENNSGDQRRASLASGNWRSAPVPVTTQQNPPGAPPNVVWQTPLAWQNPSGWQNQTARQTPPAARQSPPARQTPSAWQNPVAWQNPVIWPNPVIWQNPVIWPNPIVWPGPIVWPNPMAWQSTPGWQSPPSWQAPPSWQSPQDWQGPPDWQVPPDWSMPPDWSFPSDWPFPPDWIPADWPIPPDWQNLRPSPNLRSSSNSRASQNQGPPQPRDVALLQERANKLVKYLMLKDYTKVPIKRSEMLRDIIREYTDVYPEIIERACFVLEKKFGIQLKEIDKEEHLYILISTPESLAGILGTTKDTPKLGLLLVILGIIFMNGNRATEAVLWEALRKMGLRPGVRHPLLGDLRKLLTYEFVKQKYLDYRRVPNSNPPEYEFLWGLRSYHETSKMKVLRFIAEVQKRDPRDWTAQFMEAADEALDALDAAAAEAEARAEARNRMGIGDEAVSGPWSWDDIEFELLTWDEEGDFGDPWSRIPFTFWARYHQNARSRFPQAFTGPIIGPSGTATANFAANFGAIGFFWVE


Tests used:
[1] = target: T1, endogenous NRAGE (neurotrophin receptor-mediated MAGE homolog) of P19 cells (mouse (endogenous in P19)); experiment: co-IP; endogenous NRAGE immunoprecipitated (anti-NRAGE, Santa Cruz sc-14398) from NP-40 lysates of P19 cells, blotted for XIAP, TAK1 and NRAGE; cells untreated or treated with 10 ng/ml BMP-4 (1 h), 10 nM NRAGE peptide and 6 µM EndoPorter, alone or combined
EYFP-XIAP = target: T2, EYFP-XIAP (UniProt Q60989 1-496); experiment: FRET or BRET; data not shown: donor dequenching CFP:YFP FRET of overexpressed fluorescently tagged full-length NRAGE and XIAP in cells cultured with the NRAGE peptide at 10 nM, 100 nM or 1 µM
T2 construct: also called Y-X; source: 293T, co-transfected, in fixed cells; not shown: EYFP, N-terminal, kept

Row | Molecule | binding [1] | binding (EYFP-XIAP)
1 | endogenous XIAP (X-linked inhibitor of apoptosis protein) of P19 cells (from UniProt Q60989 1-496) | binds | 
2 | CFP-NRAGE (full-length NRAGE) (protein, UniProt Q9ES73 1-775) MAQKPDGGAGLRGFQAEASVEDSALLVQTLMEAIQISEAPPTSQATAAASGPNASPQSSQPPTANEKADTEVSAAAARPKTGFKAQNTTTKGPNDYSQARNAKEMPKNQPKVAFKSQNATSKGPHAASDFSHAASTGKSAAKKSEMAFKGQNTTTKAGPSATYNFTQSPSANEMTNNQPKTAKAWNDTTKIPGADAQTQNVNQAKMADVGTSAGISETDGAAAQTSADGSQAQNVESRTIIRGKRTRKINNLNVEENSNGDQRRASLASGNWRSAPVPVTTQNPPGAPPNVLWQTPLAWQNPSGWQNQTARQTPPARQSPPARQTPSAWQNPVAWQNPVIWPNPVIWQNPVIWPNPIVWPGPIVWPNPMAWQSTPGWQSPPSWQAPPSWQSPQDWQGPPDWQLPPDWSMPPDWSFPSDWPFPPDWIPADWPIPPDWQNLRPSPNLRSSPNSRASQNQGPPQPRDVALLQERANKLVKYLMLKDYTKVPIKRSEMLRDIIREYTDVYPEIIERACFVLEKKFGIQLKEIDKEEHLYILISTPESLAGILGTTKDTPKLGLLLVILGIIFMNGNRATEAVLWEALRKMGLRPGVRHPLLGDLRKLLTYEFVKQKYLDYRRVPNSNPPEYEFLWGLRSYHETSKMKVLRFIAEVQKRDPRDWTAQFMEAADEALDALDAAAAEAEARAEARNRMGIGDEAVSGPWSWDDIEFELLTWDEEGDFGDPWSRIPFTFWARYHQNARSRFPQAFTGPIIGPSGTATANFAANFGAIGFFWVE |  | binds
3 | endogenous TAK1 (TGF-β activated kinase 1) of P19 cells (protein, UniProt Q62073 1-579) MSTASAASSSSSSSASEMIEAPSQVLNFEEIDYKEIEVEEVVGRGAFGVVCKAKWRAKDVAIKQIESESERKAFIVELRQLSRVNHPNIVKLYGACLNPVCLVMEYAEGGSLYNVLHGAEPLPYYTAAHAMSWCLQCSQGVAYLHSMQPKALIHRDLKPPNLLLVAGGTVLKICDFGTACDIQTHMTNNKGSAAWMAPEVFEGSNYSEKCDVFSWGIILWEVITRRKPFDEIGGPAFRIMWAVHNGTRPPLIKNLPKPIESLMTRCWSKDPSQRPSMEEIVKIMTHLMRYFPGADEPLQYPCQYSDEGQSNSATSTGSFMDIASTNTSNKSDTNMEQVPATNDTIKRLESKLLKNQAKQQSESGRLSLGASRGSSVESLPPTSEGKRMSADMSEIEARIVATAGNGQPRRRSIQDLTVTGTEPGQVSSRSSSPSVRMITTSGPTSEKPARSHPWTPDDSTDTNGSDNSIPMAYLTLDHQLQPLAPCPNSKESMAVFEQHCKMAQEYMKVQTEIALLLQRKQELVAELDQDEKDQQNTSRLVQEHKKLLDENKSLSTYYQQCKKQLEVIRSQQQKRQGTS | binds | 
